Measured values taken from US20240369511A1, “INTEGRATED ELECTROCHEMICAL APTASENSORS FOR MEASURING CELL DEATH AND CYTOKINE ACTIVITY FROM INTACT TISSUE SAMPLES” (University of Washington, priority 2023, published 2024).
At least one compound was matched to its structure with a doubt left.

Legend:
[1] = system: U87 glioma xenograft cuboids; assay: On-device aptasensor monitoring of CytC secretion from drug-treated cuboids; format: cell-based; details: 1 μM YM-155; 12 to 48 hrs
Description: Ex-vivo monitoring of CytC from microdissected tumor tissues after drug treatment in culture using the aptasensor platform. The sensor platform's ability to quantify CytC secretion from cuboids was evaluated at different time points during an extended culture period (48 hrs). Cuboids from human U87 glioma cell-derived tumors grown in athymic nude mice were prepared. After overnight culture in a 96-well plate to allow recovery from tissue damage due to the cutting procedure, the cuboids were transferred onto the sensor platform for measurement. To prevent random adhesion of the cuboids to the sensor surface and improve the precise localization of CytC secretion detection, the cuboids were encapsulated in a hydrogel. […] Next, the sensor platform's ability to measure CytC secretion from cuboids in response to exposure to cytotoxic drugs was evaluated. Initially, the baseline signal was measured with the encapsulated cuboids on the WE before exposing U87 cuboids to different concentrations of cisplatin (a cytotoxic chemotherapy drug, FIG. 5C), sepantronium bromide, (YM-155, a survivin inhibitor and potential anti-cancer drug, FIG. 5D), and mocetinostat (MOC, a histone deacetylases inhibitor cancer drug, FIG. 5E) for 48 hrs. […] These observations were consistent with fluorescence-based findings and agreed with the sensor-based responses. […]

[2] = system: U87 glioma xenograft cuboids; assay: Terminal SYTOX green dead stain fluorescence of cuboids; format: cell-based; details: 1 μM YM-155; 48 hrs

For `COCCn1c2c([n+](Cc3cnccn3)c1C)C(=O)c1ccccc1C2=O` [YM-155, sepantronium bromide], the “CytC production rate vs DMSO control” value [1] was “higher CytC production rate than the DMSO control” and the “SG dead stain fluorescence vs DMSO control” value [2] was “elevated SG dead stain fluorescence”.
